How the values were obtained:
cells of human origin = conditions: in vitro, mainly cells of human origin; mediator, cytokine and chemokine release, superoxide, adhesion molecules, eosinophil migration
[1] = tested on: seasonal allergic rhinitis patients; conditions: over 3,200 patients, 4 double-blind randomized trials, adult and adolescent patients

`Clc1ccc2c(c1)CCc1cccnc1C2=C1CCNCC1` [desloratadine, Desloratadine] was tested, and the “inhibition of events in the cascade of allergic inflammation” value (cells of human origin) was “can inhibit many events in the cascade of allergic inflammation” and the “clinical efficacy in seasonal rhinitis” value [1] was “demonstrated the efficacy”.
